In patent publication US20230019236A1, “PROTEIN TYROSINE PHOSPHATASE INHIBITORS AND METHODS OF USE THEREOF” (Calico Life Sciences LLC, priority 2019, published 2023):
Some results were stated once for a whole list of compounds, not compound by compound.

System: MC-38 murine colon adenocarcinoma
Assay: In vivo efficacy in MC38 syngeneic tumor model
Details: 300 mg/kg/dose oral BID
Experimental: All experiments were conducted in compliance with AbbVie's Institutional Animal Care and Use Committee and the National Institutes of Health Guide for Care and Use of Laboratory Animals guidelines in a facility accredited by the Association for the Assessment and Accreditation of Laboratory Animal Care. […] The mice were group-housed 10 per cage. Food and water were available ad libitum. Animals were acclimated to the animal facilities for a period of at least one week prior to commencement of experiments. Animals were tested in the light phase of a 12-hour light:12-hour dark schedule (lights on 0600 hours).
Cells were grown to passage 3 in vitro. […] The injection volume was 0.1 mL and was composed of a 1:1 mixture of S-MEM and Matrigel® (Corning, N.Y., USA). […] Following size match, treatments were initiated on the same day. […] Compound 124 was formulated in 5% DMSO, 5% Tween 80 (Polysorbate 80), 20% PEG-400 and 70% D5W (5% dextrose in water) and was dosed at 10 mL/kg. […] Tumor volume was calculated three times weekly. Measurements of the length (L) and width (W) of the tumor were taken via electronic caliper and the volume was calculated according to the following equation: V=L×W^2/2 using Study Director Version 3.1.399.22 (Studylog Systems, Inc, CA, USA). […] Reported TGIMax is the largest TGI value for any timepoint that tumors volumes were collected for that treatment group.

Row | SMILES | time of treatment to apparent tumor stasis and shrinkage [days]
1 | COc1ccc2cc(O)c(N3CC(=O)NS3(=O)=O)c(F)c2c1 [Compound 124, 5-(1-fluoro-3-hydroxy-7-methoxynaphthalen-2-yl)-1λ^6,2,5-thiadiazolidine-1,1,3-trione] | 7 to 10
2 | CC(C)(O)CCOc1ccc2cc(O)c(N3CC(=O)NS3(=O)=O)c(F)c2c1 [Compound 182, 5-[1-fluoro-3-hydroxy-7-(3-hydroxy-3-methylbutoxy)naphthalen-2-yl]-1λ^6,2,5-thiadiazolidine-1,1,3-trione] | 7 to 10
